{
  "sequences": {"note": "Amino acid sequences for entries named in this document (tags omitted).", "UniProt P19793": "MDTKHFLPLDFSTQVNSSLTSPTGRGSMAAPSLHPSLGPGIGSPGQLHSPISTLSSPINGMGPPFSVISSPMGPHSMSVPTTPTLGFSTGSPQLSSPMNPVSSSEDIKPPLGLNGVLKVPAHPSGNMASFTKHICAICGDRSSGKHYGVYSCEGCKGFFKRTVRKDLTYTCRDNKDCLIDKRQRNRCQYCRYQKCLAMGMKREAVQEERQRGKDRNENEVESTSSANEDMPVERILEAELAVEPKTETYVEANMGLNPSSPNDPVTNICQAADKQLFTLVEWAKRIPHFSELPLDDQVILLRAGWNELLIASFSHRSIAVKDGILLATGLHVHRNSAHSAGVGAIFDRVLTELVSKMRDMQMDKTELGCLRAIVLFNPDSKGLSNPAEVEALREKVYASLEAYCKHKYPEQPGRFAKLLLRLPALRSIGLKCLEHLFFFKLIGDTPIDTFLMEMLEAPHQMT"},
  "source": "paper PMC5713318",
  "binders": {"B1": {"name": "vitamin D receptor (protein, UniProt P11473 1-427)", "chain": "MEAMAASTSLPDPGDFDRNVPRICGVCGDRATGFHFNAMTCEGCKGFFRRSMKRKALFTCPFNGDCRITKDNRRHCQACRLKRCVDIGMMKEFILTDEEVQRKREMILKRKEEEALKDSLRPKLSEEQQRIIAILLDAHHKTYDPTYSDFCQFRPPVRVNDGGGSHPSRPNSRHTPSFSGDSSSSCSDHCITSSDMMDSSSFSNLDLSEEDSDDPSVTLELSQLSMLPHLADLVSYSIQKVIGFAKMIPGFRDLTSEDQIVLLKSSAIEVIMLRSNESFTMDDMSWTCGNQDYKYRVSDVTKAGHSLELIEPLIKFQVGLKKLNLHEEEHVLLMAICIVSPDRPGVQDAALIEAIQDRLSNTLQTYIRCRHPPPGSHLLYAKMIQKLADLRSLNEEHSKQYRCLSFQPECSMKLTPLVLEVFGNEIS"}},
  "biological_target": "Retinoid x receptor α (human (endogenous in visceral adipose tissue)) (UniProt P19793)",
  "assay": "co-IP; nuclear extracts (100 ug) of VAT from LIR-MO and HIR-MO subjects, tissue incubated with 1,25(OH)2D3 (10 uM); precipitated with rat antihuman RXR antibody (rat IgG as control) 20 h at 4 °C, protein G plus/protein A-agarose; blot with anti-VDR",
  "note": "These are yes or no findings as the source states them, for the method shown. Binding seen in cells or lysates may run through a third protein. Some entries that bind do so weakly or less than the wild type.",
  "data": [
    {"binder": "B1", "values": [
      {"measurement": "binding", "value": "binds"}
    ]}
  ]
}
